Results are given in words; binding and its absence hold for the method and conditions named. Binding seen in cells or lysates may run through a third protein. Binding can be weak; no strength is given. Tags and fused reporters may be left off the sequences shown.
Target: IRS1myc
Assay: co-IP; HEK293T cells transfected 24 h; IRS1myc precipitated with Myc-Trap_A from lysate (50 mM Tris-HCl pH 7.4, 150 mM NaCl, 1 mM EDTA, 1% Triton X-100), 2 h at 4°C; immunoblot; for DYRK1A-GFP also after siRNA knock-down of DCAF7 (Figure S1C, cells not stated)

- binding: binds
B1: DCAF7-Flag (protein, UniProt P61962 1-342)
chain: MSLHGKRKEIYKYEAPWTVYAMNWSVRPDKRFRLALGSFVEEYNNKVQLVGLDEESSEFICRNTFDHPYPTTKLMWIPDTKGVYPDLLATSGDYLRVWRVGETETRLECLLNNNKNSDFCAPLTSFDWNEVDPYLLGTSSIDTTCTIWGLETGQVLGRVNLVSGHVKTQLIAHDKEVYDIAFSRAGGGRDMFASVGADGSVRMFDLRHLEHSTIIYEDPQHHPLLRLCWNKQDPNYLATMAMDGMEVVILDVRVPCTPVARLNNHRACVNGIAWAPHSSCHICTAADDHQALIWDIQQMPRAIEDPILAYTAEGEINNVQWASTQPDWIAICYNNCLEILRV

Source: paper PMC9556925
